The target in assay [1] is Full length human HtrA1 (HuHtrA1) (Q23-P480), N-terminal His6 tag (human) (UniProt Q92743). In words: phage competition ELISA: Fab-phage pre-incubated with serially diluted soluble HuHtrA1 (x axis), unbound phage captured on HuHtrA1-coated plate. For orientation: In an ELISA, binding on a coated surface is turned into a signal by an enzyme label.
Assay [2] has as its target Full length murine HtrA1 (MuHtrA1) (P24-P480), N-terminal His6 tag (murine) (UniProt Q9R118). Put plainly: phage competition ELISA: Fab-phage pre-incubated with serially diluted soluble MuHtrA1 (x axis), unbound phage captured on HuHtrA1-coated plate.

The chains behind the UniProt entries cited, without tags or fusion partners. Where a name states a change or a piece, a line headed by the entry shows the natural chain unless it says otherwise.
UniProt Q92743: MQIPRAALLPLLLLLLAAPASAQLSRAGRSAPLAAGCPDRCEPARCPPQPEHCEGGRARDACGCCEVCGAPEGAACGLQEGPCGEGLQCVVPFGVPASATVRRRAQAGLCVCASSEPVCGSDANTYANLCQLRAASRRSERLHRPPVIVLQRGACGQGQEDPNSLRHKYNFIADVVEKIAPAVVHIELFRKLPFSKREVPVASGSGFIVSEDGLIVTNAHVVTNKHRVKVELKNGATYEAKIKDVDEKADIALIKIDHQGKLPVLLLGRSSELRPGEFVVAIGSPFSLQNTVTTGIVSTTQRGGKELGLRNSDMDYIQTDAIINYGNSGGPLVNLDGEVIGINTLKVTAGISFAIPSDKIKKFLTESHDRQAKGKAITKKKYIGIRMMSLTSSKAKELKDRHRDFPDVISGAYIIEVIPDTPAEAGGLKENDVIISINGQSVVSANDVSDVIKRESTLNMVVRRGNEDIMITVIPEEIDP
UniProt Q9R118: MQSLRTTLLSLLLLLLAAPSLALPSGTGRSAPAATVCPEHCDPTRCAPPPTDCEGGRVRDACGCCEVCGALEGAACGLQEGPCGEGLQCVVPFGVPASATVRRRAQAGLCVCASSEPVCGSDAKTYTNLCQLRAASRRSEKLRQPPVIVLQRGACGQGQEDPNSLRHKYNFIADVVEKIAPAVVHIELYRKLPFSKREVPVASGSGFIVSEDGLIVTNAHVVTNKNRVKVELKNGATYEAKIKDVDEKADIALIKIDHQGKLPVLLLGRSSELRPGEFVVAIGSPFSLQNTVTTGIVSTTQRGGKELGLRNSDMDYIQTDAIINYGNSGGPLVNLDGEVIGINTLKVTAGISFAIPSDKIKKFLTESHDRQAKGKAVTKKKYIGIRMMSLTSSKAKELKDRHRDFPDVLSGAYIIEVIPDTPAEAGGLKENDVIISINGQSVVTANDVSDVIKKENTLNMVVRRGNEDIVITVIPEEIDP

Results are given in words; binding and its absence hold for the method and conditions named. Some binding calls cover weakened binding; strength is not graded here.

B1: YW505.94a.28 Fab (Fab, V domains shown)
VH: EVQLVESGGGLVQPGGSLRLSCAASGFSISGYYIHWVRQAPGKGLEWVGWIDPYGGDTNYADSVKGRFTISADTSKNTAYLQMNSLRAEDTAVYYCARGTFLTSWGHYFDYWGQGT
VL: DIQMTQSPSSLSASVGDRVTITCRASQSINTYLAWYQQKPGKAPKLLIYSASFLYSGVPSRFSGSGSGTDFTLTISSLQPEDFATYYCQQSDDTPPTFGQGTKVEIKR
Consider B1, for which the binding result in assay [1] and in assay [2] was “binds” each time.

B2: YW505.94a.54 Fab (Fab, V domains shown)
VH: EVQLVESGGGLVQPGGSLRLSCAASGFSISGYYIHWVRQAPGKGLEWVGWIDPYGGDTNYADSVKGRFTISADTSKNTAYLQMNSLRAEDTAVYYCARGTFLTSWGHYFDYWGQGT
VL: DIQMTQSPSSLSASVGDRVTITCRASQVVGNYLAWYQQKPGKAPKLLIYSASFLYSGVPSRFSGSGSGTDFTLTISSLQPEDFATYYCQQSDDHPPTFGQGTKVEIKR
For B2, the binding result in assay [1] and in assay [2] was “binds” each time.

B3: YW505.94a Fab (Fab, V domains shown)
VH: EVQLVESGGGLVQPGGSLRLSCAASGFSISGYYIHWVRQAPGKGLEWVGWIDPYGGDTNYADSVKGRFTISADTSKNTAYLQMNSLRAEDTAVYYCARGTFLTSWGHYFDYWGQGT
VL: DIQMTQSPSSLSASVGDRVTITCRASQDVSTAVAWYQQKPGKAPKLLIYSASFLYSGVPSRFSGSGSGTDFTLTISSLQPEDFATYYCQQSYTTPPTFGQGTKVEIKR
For the molecule B3, the binding result in assay [1] and in assay [2] was “binds” each time.

The values above are taken from US20190016826A1.
